# Experimental data as given in PubChem BioAssay AID743238 (Broad Institute, 2013).
# In all, about 360,000 compounds went through this assay and about 200 (0.056%) were called active. The inconclusive results got no clear call from the source; some entries with a clear call stand among them for comparison.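 The calls were made as follows: active = mean normalized replicate activation at least 10% and every replicate at or above 10%; inconclusive = only one of the two criteria met; inactive = mean below 10% and not all replicates reach 10%.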
# Assay: activators of inactive X chromosome reactivation, primary screen, imaging, XiGFP fibroblasts, GFP high-content imaging, set 2 (AID 743238);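 also: 0% = median of on-plate neutral control wells and 100% = ellipticine 6 µM median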
# Conditions: XiGFP mouse fibroblasts, % GFP-positive cells imaging, 3 d; at 7.58 µM; hits give high values; cells co-treated with 5-aza-dC sensitizer; scaled so ellipticine positive control = 100%
# Method in brief: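 material = 68-5-11 XiGFP fibroblast line | medium = DMEM plus 5-aza-dC sensitizer | schedule = 3 days compound exposure | benchmarks = positive control ellipticine, 6 µM final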
row,SMILES,activation
1,CCOc1ccc(CCNC(=O)c2ccc3ccccc3n2)cc1OCC,inactive: 0.0725%
2,O=C(c1nc(SCc2ccc([N+](=O)[O-])cc2)n2ccccc12)C(F)(F)F,inconclusive: 11.9%
3,CC(C)NC(=O)Nc1ccc2c(c1)C(=O)N([C@H](C)CO)C[C@@H](C)[C@H](CN(C)C(=O)Nc1ccc(C(F)(F)F)cc1)OCCCC[C@@H](C)O2,inactive: 0.221%
4,COc1ccc(S(=O)(=O)Nc2ccc3c(c2)C(=O)N([C@@H](C)CO)C[C@H](C)[C@H](CN(C)C(=O)CCCN(C)C)OCCCC[C@H](C)O3)cc1,inconclusive: 17%
5,CC[n+]1c(/C=C2\Sc3ccccc3N2C)ccc2cccc(C)c21,active: 105%
6,CCc1nc(N2[C@H](C#N)[C@@H](c3ccccc3-c3ccccc3C)[C@H]2CO)sc1C,inactive: 0.001%
7,O=CNc1ccc2c(c1)Cc1cc([N+](=O)[O-])ccc1-2,inconclusive: 11.1%
8,O=C(OCc1cc(=O)n2c(n1)sc1ccccc12)c1ccc(O)cc1O,inconclusive: 22%
9,COCC(=O)Nc1ccc2c(c1)[C@@H]1C[C@@H](CC(=O)NCCc3ccccc3)O[C@H](CO)[C@@H]1O2,inactive: 0.139%
10,O=c1c2cc(-c3ccccc3)sc2nc2n1N=C(c1ccccc1)CS2,inconclusive: 12.9%
11,CC(C)OC(=O)/C(=C\c1cccnc1)NC(=O)c1ccccc1,inconclusive: 39.2%
12,O=C(NCCOc1ccccc1)c1cc([N+](=O)[O-])ccc1N1CCOCC1,inconclusive: 18.5%
13,COc1ccc2c3c(n(C)c2c1)[C@@H](CO)N(C)CC31CN(C(=O)NC(C)C)C1,inconclusive: 19.6%
14,CC(C)(C)[S@@](=O)N1Cc2cc(C(=O)N3CCCCC3)nc(-c3cccc(-c4cccc(C#N)c4)c3)c2[C@H]1CCO,inconclusive: 11.4%
15,CCN1/C(=C/C=C/c2oc3ccc(-c4ccccc4)cc3[n+]2CC)Oc2ccc(-c3ccccc3)cc21,active: 103%
16,C[C@H]1CN([C@@H](C)CO)C(=O)CCCn2nncc2CO[C@@H]1CN(C)S(=O)(=O)c1ccc(C#N)cc1,inactive: -0.712%
17,CCc1nc2sccc2c(=O)[nH]1,inactive: 0.25%
18,N#CC(C#N)=C1C=CC=CN1/C(=C\c1ccco1)C(=O)c1ccc(-c2ccccc2)cc1,active: 15.1%
19,COc1ccc(-c2cn(CC[C@H]3CC[C@H](NC(=O)Cc4ccccn4)[C@@H](CO)O3)nn2)cc1,inactive: -0.067%
20,CCN(CC)c1ccc2cc(C(=O)c3cccs3)c(=O)oc2c1,inconclusive: 28.4%
21,Cc1cc(NC(=O)c2c(-c3c(Cl)cccc3Cl)noc2C)n(C)n1,inconclusive: 15.2%

# Fetched one by one from the list above:
row,SMILES,activation
18,N#CC(C#N)=C1C=CC=CN1/C(=C\c1ccco1)C(=O)c1ccc(-c2ccccc2)cc1,active: 15.1%
15,CCN1/C(=C/C=C/c2oc3ccc(-c4ccccc4)cc3[n+]2CC)Oc2ccc(-c3ccccc3)cc21,active: 103%
